Values from PubChem BioAssay AID652243 (Drosophila RNAi Screening Center, 2013).
Assay: 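Fly regulators of androgen-dependent reporter output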 (primary screen). Cell system: Drosophila S2R+ cells. Reagents: long dsRNA against Drosophila genes. Duration: 72 h (48 h, then 24 h hormone). Challenge: synthetic androgen R1881 at 10 nM for 24 h. Measurement: 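Per-well raw luminescence of the androgen-driven firefly reporter and of the Renilla control, two replicates each, without normalisation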. Reading the numbers: firefly reporter light: higher = more light from androgen-responsive reporter; Renilla control light: higher = more constitutive control signal (cell number, transfection). Hit rule: 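Across duplicate plates, a knock-down whose log firefly/Renilla ratio shifted a set fold down or up from the GFP/LacZ control mean was a hit; the downward cut appears as both 1.5 and 3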. Meaning of the calls: active = hit: reporter lowered or raised; inactive = no hit.
In all, the deposit lists about 24,000 reagents; shown is a random part of those that have a named target and a result. Over the whole deposit, 246 (1%) were called active. 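Plates not normalised; calls are printed but the firefly/Renilla ratio behind them is not deposited; fold cut for lowering reported inconsistently.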 Raw values vary from plate to plate and are shown uncorrected. A plus sign joins genes that one reagent is predicted to hit. Not stated in the record: the amount of reagent.

| gene | DRSC id | firefly reporter light, replicate 1 | firefly reporter light, replicate 2 | Renilla control light, replicate 1 | Renilla control light, replicate 2 | Call |
| --- | --- | --- | --- | --- | --- | --- |
| Tsf1 | DRSC20296 | 6.72e5 | 5.69e5 | 3.91e6 | 3.65e6 | inactive |
| Tsf1 | DRSC28246 | 3.06e5 | 5.86e5 | 7.23e5 | 1.67e6 | inactive |
| CG42784 | DRSC02534 | 1.07e6 | 1.15e6 | 1.67e6 | 3.16e6 | inactive |
| CG42784 | DRSC22272 | 9.93e5 | 8.11e5 | 1.74e6 | 1.35e6 | inactive |
| CG42784 | DRSC22804 | 2.95e5 | 5.46e5 | 4.40e5 | 4.73e5 | inactive |
| CG42784 | DRSC23000 | 8.00e5 | 1.10e6 | 4.61e5 | 7.70e5 | inactive |
| CG42784 | DRSC25815 | 3.26e5 | 4.17e5 | 5.09e5 | 5.37e5 | inactive |
| CG42784 | DRSC29731 | 4.19e5 | 3.75e5 | 1.43e6 | 1.29e6 | inactive |
| CG17982 | DRSC18143 | 2.30e5 | 2.11e5 | 2.43e6 | 1.47e6 | inactive |
| mRpS25 | DRSC19598 | 5.38e5 | 4.94e5 | 4.19e6 | 3.53e6 | inactive |
| AIMP2 | DRSC09877 | 44686 | 46289 | 5.31e5 | 4.54e5 | inactive |
| AIMP2 | DRSC26797 | 3.03e5 | 3.05e5 | 4.29e5 | 4.51e5 | inactive |
| Cyp9f3 | DRSC16636 | 2.21e5 | 1.82e5 | 2.03e6 | 2.46e6 | inactive |
| Cyp9f3 | DRSC25711 | 8.85e5 | 6.26e5 | 1.03e6 | 1.05e6 | inactive |
| yellow-d | DRSC04589 | 3.55e5 | 3.50e5 | 2.00e6 | 1.95e6 | inactive |
| yellow-d | DRSC26933 | 3.90e5 | 3.00e5 | 8.24e5 | 4.04e5 | inactive |
| CG11726 | DRSC09858 | 1.91e5 | 2.46e5 | 2.02e6 | 1.57e6 | inactive |
| lncRNA:CR43493 + l(1)G0196 | DRSC20628 | 1.21e5 | 96921 | 1.01e6 | 8.69e5 | inactive |
| Gr66a | DRSC10783 | 1.47e5 | 1.27e5 | 2.29e6 | 1.57e6 | inactive |
| CG9471 | DRSC16499 | 78390 | 74252 | 1.75e6 | 1.41e6 | inactive |
| CG9471 | DRSC26334 | 3.21e5 | 3.20e5 | 7.06e5 | 6.78e5 | inactive |
| CG2336 | DRSC12581 | 47632 | 80658 | 1.16e6 | 1.25e6 | inactive |
| rdog | DRSC14431 | 97727 | 1.10e5 | 7.11e5 | 6.42e5 | inactive |
| rdog | DRSC26545 | 3.94e5 | 3.10e5 | 4.00e5 | 5.84e5 | inactive |
| CG42618 (retired record) | DRSC38724 | 7.78e5 | 5.39e5 | 1.53e6 | 1.88e6 | inactive |
| CG8924 | DRSC23027 | 7.71e5 | 8.56e5 | 1.66e6 | 1.67e6 | inactive |
| CNPYb | DRSC09845 | 26086 | 25971 | 3.44e5 | 3.13e5 | inactive |

Already shown: an excerpt of the list.
| gene | DRSC id | firefly reporter light, replicate 1 | firefly reporter light, replicate 2 | Renilla control light, replicate 1 | Renilla control light, replicate 2 | Call |
| --- | --- | --- | --- | --- | --- | --- |
| CG42784 | DRSC22272 | 9.93e5 | 8.11e5 | 1.74e6 | 1.35e6 | inactive |
| CG42784 | DRSC22804 | 2.95e5 | 5.46e5 | 4.40e5 | 4.73e5 | inactive |
| CG42784 | DRSC23000 | 8.00e5 | 1.10e6 | 4.61e5 | 7.70e5 | inactive |
| CG42784 | DRSC25815 | 3.26e5 | 4.17e5 | 5.09e5 | 5.37e5 | inactive |
| CG42784 | DRSC29731 | 4.19e5 | 3.75e5 | 1.43e6 | 1.29e6 | inactive |
| CG17982 | DRSC18143 | 2.30e5 | 2.11e5 | 2.43e6 | 1.47e6 | inactive |
| mRpS25 | DRSC19598 | 5.38e5 | 4.94e5 | 4.19e6 | 3.53e6 | inactive |
| AIMP2 | DRSC09877 | 44686 | 46289 | 5.31e5 | 4.54e5 | inactive |
| AIMP2 | DRSC26797 | 3.03e5 | 3.05e5 | 4.29e5 | 4.51e5 | inactive |
| Cyp9f3 | DRSC16636 | 2.21e5 | 1.82e5 | 2.03e6 | 2.46e6 | inactive |
| Cyp9f3 | DRSC25711 | 8.85e5 | 6.26e5 | 1.03e6 | 1.05e6 | inactive |

Next reagents follow.
| gene | DRSC id | firefly reporter light, replicate 1 | firefly reporter light, replicate 2 | Renilla control light, replicate 1 | Renilla control light, replicate 2 | Call |
| --- | --- | --- | --- | --- | --- | --- |
| Cam | DRSC07353 | 5.25e5 | 8.04e5 | 8.94e5 | 1.45e6 | inactive |
| Cam | DRSC07354 | 5.18e5 | 4.03e5 | 2.52e6 | 1.50e6 | inactive |
| CG31326 | DRSC16532 | 95972 | 82488 | 1.03e6 | 1.64e6 | inactive |
| CG31326 | DRSC26494 | 1.76e5 | 2.05e5 | 2.37e5 | 2.16e5 | inactive |
| GCC88 | DRSC14264 | 96350 | 1.60e5 | 1.96e6 | 1.88e6 | inactive |
| GCC88 | DRSC29299 | 1.13e6 | 8.92e5 | 1.30e6 | 1.35e6 | inactive |
| FIG4 | DRSC00515 | 6.12e5 | 4.28e5 | 1.24e6 | 1.06e6 | inactive |
| mmm | DRSC10208 | 1.16e5 | 1.32e5 | 8.54e5 | 1.35e6 | inactive |
| Osi22 | DRSC16442 | 62658 | 65372 | 1.58e6 | 1.65e6 | inactive |
| Osi22 | DRSC27176 | 2.71e5 | 3.05e5 | 5.75e5 | 6.69e5 | inactive |
| CG42586 + CG31775 | DRSC01413 | 26561 | 29711 | 15575 | 12901 | inactive |
| CG6071 | DRSC10579 | 1.42e5 | 1.49e5 | 1.14e6 | 1.18e6 | inactive |
| Ranbp21 | DRSC19447 | 64669 | 36163 | 4.00e5 | 3.32e5 | inactive |
| CG15252 | DRSC17981 | 1.50e5 | 1.76e5 | 1.93e6 | 1.80e6 | inactive |
| CG15252 | DRSC29645 | 6.14e5 | 5.58e5 | 8.85e5 | 8.85e5 | inactive |
| CG1090 | DRSC12150 | 64821 | 86252 | 6.83e5 | 5.87e5 | inactive |
| CG1090 | DRSC21604 | 1.11e6 | 9.51e5 | 2.30e6 | 2.51e6 | inactive |
| CG5515 | DRSC15825 | 76607 | 42672 | 4.64e5 | 3.85e5 | inactive |
| CheB42c | DRSC04972 | 3.32e5 | 2.14e5 | 2.03e6 | 1.65e6 | inactive |
| CheB42c | DRSC27357 | 2.44e5 | 2.87e5 | 5.80e5 | 5.83e5 | inactive |
| CG15641 | DRSC19677 | 3.63e5 | 3.56e5 | 3.43e6 | 3.42e6 | inactive |
| Lac | DRSC07452 | 1.27e6 | 7.45e5 | 1.40e6 | 9.95e5 | inactive |
| CG10660 | DRSC09769 | 2.64e5 | 1.34e5 | 1.75e6 | 9.59e5 | inactive |
| CG10660 | DRSC29040 | 7.11e5 | 7.15e5 | 1.91e6 | 1.36e6 | inactive |
| CG15042 | DRSC19618 | 3.59e5 | 3.80e5 | 3.17e6 | 2.53e6 | inactive |
| CG18558 | DRSC21593 | 4.20e5 | 5.27e5 | 1.46e6 | 2.56e6 | inactive |
| Hsp67Bc | DRSC11193 | 1.86e5 | 1.14e5 | 2.27e6 | 1.05e6 | inactive |
| Hsp67Bc | DRSC28175 | 5.27e5 | 4.60e5 | 1.80e6 | 1.76e6 | inactive |
| regucalcin | DRSC20366 | 3.18e5 | 3.83e5 | 2.49e6 | 3.27e6 | inactive |
| regucalcin | DRSC25592 | 6.08e5 | 5.22e5 | 4.48e5 | 4.38e5 | inactive |
| Apt1 | DRSC10348 | 1.87e5 | 91716 | 2.27e6 | 1.13e6 | inactive |
| Rac1 | DRSC08688 | 83636 | 66629 | 7.22e5 | 9.85e5 | inactive |
| Rac1 | DRSC25131 | 4.84e5 | 3.68e5 | 5.16e5 | 4.60e5 | inactive |
| CR31054 + CG4849 | DRSC28625 | 4.15e5 | 3.14e5 | 1.58e6 | 1.44e6 | inactive |
| CG13280 | DRSC02253 | 1.45e5 | 1.19e5 | 1.36e6 | 1.60e6 | inactive |
| CG15128 | DRSC06550 | 52578 | 88396 | 9.32e5 | 1.26e6 | inactive |
| GatC + PolG2 | DRSC03312 | 9.85e5 | 7.84e5 | 1.65e6 | 1.86e6 | inactive |
| TfIIEalpha | DRSC11303 | 1.25e6 | 1.20e6 | 2.03e6 | 2.16e6 | inactive |
| TfIIEalpha | DRSC27748 | 3.19e5 | 3.01e5 | 7.48e5 | 8.65e5 | inactive |
| grau | DRSC04691 | 1.29e5 | 1.11e5 | 1.30e6 | 8.67e5 | inactive |
| grau | DRSC27330 | 6.19e5 | 5.18e5 | 7.87e5 | 7.87e5 | inactive |
| Blos2 | DRSC10147 | 1.26e5 | 1.51e5 | 1.49e6 | 1.43e6 | inactive |
| Blos2 | DRSC25642 | 7.40e5 | 9.22e5 | 7.83e5 | 8.26e5 | inactive |
| CG14011 | DRSC02343 | 1.26e5 | 1.02e5 | 1.62e6 | 1.22e6 | inactive |
| CG14011 | DRSC27954 | 6.16e5 | 5.23e5 | 2.49e6 | 1.34e6 | inactive |
| CG34231 | DRSC38876 | 1.38e6 | 7.16e5 | 2.07e6 | 1.57e6 | inactive |
| CG32295 | DRSC23259 | 9.41e5 | 8.48e5 | 9.53e5 | 1.17e6 | inactive |
